Patent US20120277164A1 (IMPERIAL INNOVATIONS, published 2012)
These are yes or no findings as the source states them, for the method shown. In cells and extracts the contact can be indirect. Some results given as binding are weak or reduced against the parent protein; the word gives no strength. Tags and fused reporters may be left off the sequences shown.

The chains behind the UniProt entries cited, without tags or fusion partners.
UniProt O14733: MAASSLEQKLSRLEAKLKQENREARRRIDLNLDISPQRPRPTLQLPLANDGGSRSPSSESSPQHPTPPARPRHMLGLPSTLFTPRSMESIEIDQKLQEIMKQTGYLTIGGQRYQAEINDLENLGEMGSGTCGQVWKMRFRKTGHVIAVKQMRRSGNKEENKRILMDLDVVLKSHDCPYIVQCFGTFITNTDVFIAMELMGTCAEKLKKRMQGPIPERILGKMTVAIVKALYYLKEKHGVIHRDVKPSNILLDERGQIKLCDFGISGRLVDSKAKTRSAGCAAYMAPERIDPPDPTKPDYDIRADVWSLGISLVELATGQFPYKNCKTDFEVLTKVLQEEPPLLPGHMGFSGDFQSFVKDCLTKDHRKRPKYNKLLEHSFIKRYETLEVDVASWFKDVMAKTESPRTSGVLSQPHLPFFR

Target: FLAG-MKK7 (UniProt O14733)
Test: co-immunoprecipitation, western blot

- binding: binds
B1: Full length human Gadd45β (other, UniProt O75293 1-160, looked up)
chain: MTLEELVACDNAAQKMQTVTAAVEELLVAAQRQDRLTVGVYESAKLMNVDPDSVVLCLLAIDEEEEDDIALQIHFTLIQSFCCDNDINIVRVSGMQRLAQLLGEPAETQGTTEARDLHCLLVTNPHTDAWKSHGLVEVASYCEESRGNNQWVPYISLQER
notes: also called Gadd45β (SPR)
